PubChem BioAssay AID1259254 | NCATS – 2017

Test: 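Finding genes that stop cells copying their DNA twice in one cycle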 (primary screen)
Cells: human HCT116 colorectal cancer cells
Knock-down reagent: single siRNA against human genes
Timing: 3 days
Read-out: 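Imaged Hoechst DNA stain sorts each cell into a cycle phase by DNA amount; per plate, G2 fraction set to 0% for non-targeting and 100% for GMNN siRNA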
Reading the numbers: G2 robust z-score and G2 cells, % of GMNN control: higher = more G2 cells, more excess DNA replication
Hit rule: 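An siRNA counts as active if its G2 robust z-score lies at least 5 MADs above the screen median; here such calls match roughly 38% of GMNN control or more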
Shown is a random part of about 59,000 deposited reagents. Over the whole deposit, about 1,550 (2.6%) are marked active. 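G2 share is only a proxy for re-replication; each gene was hit by three separate siRNAs, and active genes were retested.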 A number with no mark means an inactive call. Reagents against one gene are numbered here. Not all columns of the deposit are shown. The record does not give: the amount of reagent.

NDUFV3 #1 | G2 robust z-score = 1.6; G2 cells, % of GMNN control = 14.2
NDUFV3 #2 | G2 robust z-score = -0.758; G2 cells, % of GMNN control = -2.37
NDUFV3 #3 | G2 robust z-score = -0.911; G2 cells, % of GMNN control = -3.44
EEPD1 #1 | G2 robust z-score = 3.21; G2 cells, % of GMNN control = 25.6
EEPD1 #2 | G2 robust z-score = -0.386; G2 cells, % of GMNN control = 0.254
EEPD1 #3 | G2 robust z-score = -1.06; G2 cells, % of GMNN control = -4.49
GIN1 #1 | G2 robust z-score = -0.879; G2 cells, % of GMNN control = -3.21
GIN1 #2 | G2 robust z-score = 1.45; G2 cells, % of GMNN control = 13.1
GIN1 #3 | G2 robust z-score = -0.632; G2 cells, % of GMNN control = -1.48
GRIA2 #1 | G2 robust z-score = 0.297; G2 cells, % of GMNN control = 5.05
GRIA2 #2 | G2 robust z-score = 0.118; G2 cells, % of GMNN control = 3.8
GRIA2 #3 | G2 robust z-score = 0.688; G2 cells, % of GMNN control = 7.81

Not a retest: 4 of the entries above.
NDUFV3 #1 | G2 robust z-score = 1.6; G2 cells, % of GMNN control = 14.2
NDUFV3 #2 | G2 robust z-score = -0.758; G2 cells, % of GMNN control = -2.37
NDUFV3 #3 | G2 robust z-score = -0.911; G2 cells, % of GMNN control = -3.44
EEPD1 #1 | G2 robust z-score = 3.21; G2 cells, % of GMNN control = 25.6

More results:
CHRNA1 #1 | G2 robust z-score = 4.46; G2 cells, % of GMNN control = 34.4
CHRNA1 #2 | G2 robust z-score = -0.39; G2 cells, % of GMNN control = 0.222
CHRNA1 #3 | G2 robust z-score = 0.288; G2 cells, % of GMNN control = 4.99
TGFBR3 #1 | G2 robust z-score = -0.633; G2 cells, % of GMNN control = -1.49
TGFBR3 #2 | G2 robust z-score = 0.597; G2 cells, % of GMNN control = 7.17
TGFBR3 #3 | G2 robust z-score = 0.827; G2 cells, % of GMNN control = 8.78
ZNF260 #1 | G2 robust z-score = -0.618; G2 cells, % of GMNN control = -1.38
ZNF260 #2 | G2 robust z-score = 1.22; G2 cells, % of GMNN control = 11.5
ZNF260 #3 | G2 robust z-score = 0.578; G2 cells, % of GMNN control = 7.04
CCL8 #1 | G2 robust z-score = 1.02; G2 cells, % of GMNN control = 10.1
CCL8 #2 | G2 robust z-score = -0.374; G2 cells, % of GMNN control = 0.335
CCL8 #3 | G2 robust z-score = -1.01; G2 cells, % of GMNN control = -4.12
FBXO44 #1 | G2 robust z-score = 1.59; G2 cells, % of GMNN control = 14.2
FBXO44 #2 | G2 robust z-score = 0.31; G2 cells, % of GMNN control = 5.15
FBXO44 #3 | G2 robust z-score = -0.352; G2 cells, % of GMNN control = 0.491
FBXO27 #1 | G2 robust z-score = -0.869; G2 cells, % of GMNN control = -3.15
FBXO27 #2 | G2 robust z-score = -0.721; G2 cells, % of GMNN control = -2.1
FBXO27 #3 | G2 robust z-score = 0.174; G2 cells, % of GMNN control = 4.19
